Experimental findings from the supplement of paper PMC4604168 (melanoma cell lines) are described below.

SMILES strings stand for the structures. Some of the results follow. Single values are uncertain, as repeats are few or missing.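 The apoptosis fraction was the count of cleaved-PARP antibody-stained nuclei relative to all DNA-stained nuclei, imaged in 1,536-well plates. Screening doses were set so most cells survived, and baseline and induced cleaved-PARP levels vary greatly across cell lines.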

For this test, the system named is WM1745. As to the kind of experiment: cleaved PARP positive nuclei fraction relative to DMSO control; melanoma cells; higher = more apoptosis. The conditions noted are these: library dose: low library concentration; 72 h.
Consider `CCCS(=O)(=O)Nc1ccc(F)c(C(=O)c2c[nH]c3ncc(Cl)cc23)c1F` + COc1cc(Nc2ncc(F)c(Nc3ccc4c(n3)NC(=O)C(C)(C)O4)n2)cc(OC)c1OC [Tamatinib] (first compound 0.08 µM, partner dose 0.4 µM), for which the “cleaved PARP positive nuclei fraction” value worked out at 131%.

Regarding `Cn1c(=O)n(-c2ccc(C(C)(C)C#N)cc2)c2c3cc(-c4cnc5ccccc5c4)ccc3ncc21` + Oc1cc(-c2nc(-c3ccccc3)[nH]c2-c2ccncc2)ccc1Cl [L779450] (first compound 0.004 µM, partner dose 0.2 µM), the “cleaved PARP positive nuclei fraction” value was 105%.

On to `CN1CCN(c2ccc3nc(-c4c(N)c5c(F)cccc5[nH]c4=O)[nH]c3c2)CC1` [Dovitinib] + COc1ccc(COc2ccc(Cc3cnc(N)nc3N)cc2OC)cc1 [GW2580] (first compound 0.1 µM, partner dose 1 µM), for which the “cleaved PARP positive nuclei fraction” value is 113%.

Take `C=C(c1ccc(C(=O)O)cc1)c1cc2c(cc1C)C(C)(C)CCC2(C)C` [Bexarotene] + CCc1ccc(CCOc2ccc(CC3SC(=O)NC3=O)cc2)nc1 [pioglitazone] (first compound 2 µM, partner dose 2 µM): the “cleaved PARP positive nuclei fraction” value stood at 86.7%.

Consider `Cc1cc(Nc2cc(N3CCN(C)CC3)nc(/C=C/c3ccccc3)n2)n[nH]1` + CC(C)CCN1c2nc(Nc3cc(F)c(O)c(F)c3)ncc2N(C)C(=O)C1C [BID1870] (first compound 0.04 µM, partner dose 0.2 µM), for which the “cleaved PARP positive nuclei fraction” value amounted to 93.2%.

Regarding `CN1CCN(c2ccc3nc(-c4c(N)c5c(F)cccc5[nH]c4=O)[nH]c3c2)CC1` [Dovitinib] + CN(C)S(=O)(=O)c1ccc2c(c1)/C(=C/c1cc3c([nH]1)CCCC3)C(=O)N2 [SU6656] (first compound 0.1 µM, partner dose 0.4 µM), the “cleaved PARP positive nuclei fraction” value came out at 131%.

With `CC(C)C[C@H](NC(=O)[C@H](Cc1ccccc1)NC(=O)c1cnccn1)B(O)O` [Bortezomib] + COc1cc2ncnc(Nc3ccc(Oc4ccccc4)cc3)c2cc1OC [SrcI1] (first compound 0.001 µM, partner dose 2 µM), the “cleaved PARP positive nuclei fraction” value amounted to 294%.

Turning to `CC(C)C[C@H](NC(=O)[C@H](Cc1ccccc1)NC(=O)c1cnccn1)B(O)O` [Bortezomib] + C[C@@H]1CCN(C(=O)CC#N)C[C@@H]1N(C)c1ncnc2[nH]ccc12 [CP690550] (first compound 0.001 µM, partner dose 1 µM), the “cleaved PARP positive nuclei fraction” value stood at 119%.

Regarding `CNC(=O)c1cc(Oc2ccc(NC(=O)Nc3ccc(Cl)c(C(F)(F)F)c3)cc2)ccn1` [sorafenib] + c1cc(-c2cnn3cc(-c4ccc(OCCN5CCCCC5)cc4)cnc23)ccn1 [Dorsomorphin] (first compound 0.4 µM, partner dose 0.4 µM), the “cleaved PARP positive nuclei fraction” value came to 98.1%.

For the molecule `O=C(O)c1ccc2c(c1)nc(Nc1cccc(Cl)c1)c1ccncc12` + O=C(Nc1cccc(Cl)c1)Nc1ncc(CCNc2ncnc3ccsc23)s1 [SNS314] (first compound 0.4 µM, partner dose 0.0008 µM), the “cleaved PARP positive nuclei fraction” value is 91.2%.

As to `CCCS(=O)(=O)Nc1ccc(F)c(C(=O)c2c[nH]c3ncc(Cl)cc23)c1F` + CCc1ccc(CCOc2ccc(CC3SC(=O)NC3=O)cc2)nc1 [pioglitazone] (first compound 0.08 µM, partner dose 2 µM), the “cleaved PARP positive nuclei fraction” value came to 92.1%.

`O=C(O)c1ccc2c(c1)nc(Nc1cccc(Cl)c1)c1ccncc12` + CC(C)(C)c1cnc(CSc2cnc(NC(=O)C3CCNCC3)s2)o1 [SNS-032] (first compound 0.4 µM, partner dose 0.01 µM): the “cleaved PARP positive nuclei fraction” value was found to be 144%.

For `CN1CCN(c2ccc3nc(-c4c(N)c5c(F)cccc5[nH]c4=O)[nH]c3c2)CC1` [Dovitinib] + NC(=O)Nc1cc(-c2cccc(F)c2)sc1C(=O)N[C@H]1CCCNC1 [AZD7762] (first compound 0.1 µM, partner dose 0.02 µM), the “cleaved PARP positive nuclei fraction” value was 99.3%.

Regarding `O=C(O)[C@@H]1[O][Sb](=[O])([O][Sb]2(=[O])[O][C@H]([C@H](O)CO)[C@H](O)[C@H](C(=O)O)[O]2)[O][C@H]([C@H](O)CO)[C@@H]1O` (stereo not given in full) [stibogluconate] + OCCn1cc(-c2cnc3nnn(Cc4ccc5ncccc5c4)c3n2)cn1 [PF04217903] (first compound 2 µM, partner dose 1 µM), the “cleaved PARP positive nuclei fraction” value is 96.1%.

For the molecule `CS(=O)(=O)CCNCc1ccc(-c2ccc3ncnc(Nc4ccc(OCc5cccc(F)c5)c(Cl)c4)c3c2)o1` [lapatinib] + COc1ccc(COc2ccc(Cc3cnc(N)nc3N)cc2OC)cc1 [GW2580] (first compound 0.8 µM, partner dose 1 µM), the “cleaved PARP positive nuclei fraction” value stood at 99.4%.
